According to PubChem BioAssay AID2685 (National Center for Advancing Translational Sciences (NCATS), 2010):
The other results are listed elsewhere or left out. Further columns of the screen follow, without active or inactive calls. Most of these compounds were active or inconclusive in the main read-out, so they are no random draw. Words in brackets tell the shape of the fitted curve; partial curves, single points and poor fits give uncertain potencies.

Experiment: qHTS Assay for Lipid Storage Modulators in Drosophila S3 Cells;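 on cell number change: cells counted by Cell Tracker Red CMTPX staining in the red channel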
Settings: BODIPY lipid droplet fluorescence, 18-24 h; for cell number change: measured here: cell count max response, cells fed with added oleic acid
How it was run: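 Drosophila S3 cells got compounds at several concentrations plus oleic acid (400 uM solution). Laser-scanning cytometry with 488 nm excitation read lipid droplets at 500-530 nm and cells at 575-640 nm. Percent activity was relative to 20 uM Triacsin C.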

[1] = measured here: lipid fluorescence (Fed channel) AC50, cells fed with added oleic acid
[2] = measured here: cell number channel AC50, cells fed with added oleic acid

Row | Structure (SMILES) | cell number change | AC50 [1] | AC50 [2]
1 | CCc1ccc(CNC(=O)c2ccc(NC(=O)C3=CSCCO3)cc2)cc1 | -33.7% | 29.1 µM [rising, single point] | 
2 | CCCn1cc(CN2CCC(n3nccc3NC(=O)c3ccccc3)CC2)c(C)n1 |  | 29.1 µM [rising, single point] | 
3 | Clc1cccc(NCc2cn3cccnc3n2)c1 |  | 0.0651 µM [falling, full curve, poor fit] | 
4 | CCOc1ccc(N(CC(=O)NC2CCCCCC2)S(=O)(=O)c2c(C)[nH]c(=O)[nH]c2=O)cc1 | -40% | 23.1 µM [falling, partial curve] | 23.1 µM [falling, partial curve]
5 | CCOc1ncccc1C(=O)Nc1ccc(Cl)cc1 |  | 0.146 µM [rising, full curve, poor fit] | 
6 | CN1CCN(S(=O)(=O)c2ccccc2)CC1 | 3.17% | 4.11 µM [falling, partial curve, poor fit] | 
7 | CC(C)(C)c1csc(NC(=O)CCc2ccccc2)n1 | -14.7% |  | 
8 | COc1ccc(C#Cc2c(C=O)n(C)c3ccccc23)cc1 | 10.5% | 0.00461 µM [falling, full curve, poor fit] | 
9 | O=C(Nc1ccc(F)c(F)c1)c1cc(S(=O)(=O)N2CCN(c3ccccn3)CC2)ccc1F | 2.66% | 5.8 µM [rising, single point] | 
10 | Oc1ccccc1C1=NCCNC(C(F)(F)C(F)F)=C1 | 3.97% | 2.06 µM [falling, partial curve] | 
11 | CCOc1cccc(C(=O)Nc2ccccc2C(=O)N2CCOCC2)c1 | -17% | 29.1 µM [falling, single point] | 
12 | Cc1ccc2nc(NC(=O)CCCc3nc4ccccc4s3)sc2c1 |  | 3.66 µM [rising, partial curve] | 2.31 µM [rising, single point]
13 | CCOC(=O)C(NCc1ccco1)(NC(=O)c1ccccc1)C(F)(F)F (stereo unspecified) | -36.1% | 2.59 µM [falling, full curve] | 2.06 µM [falling, full curve]
14 | CCn1c(COc2ccc(C(C)C)cc2)nnc1SCC(=O)Nc1nccs1 |  | 6.51 µM [rising, single point] | 2.91 µM [rising, single point]
15 | CC/C(C)=N/Nc1nc2c(c(=O)[nH]c(=O)n2C)n1CCc1ccccc1 | 14.6% |  | 
16 | Oc1cc(O)c2c(c1)OC(c1ccc(O)c(O)c1)C(O)C2 (stereo unspecified) | 3.56% | 1.84 µM [falling, partial curve, poor fit] | 
17 | CC(C)Cc1nnc(NC(=O)CSc2nc(=O)cc(N)n2-c2ccccc2)s1 | 8.31% |  | 
18 | CC(C)COc1cc(=O)[nH]c(SCC(C)C)n1 | -34.2% | 29.1 µM [falling, single point] | 23.1 µM [falling, single point]
19 | Cc1ccc(NCCNc2ccc(C)cc2)cc1 | 2.62% | 6.51 µM [rising, single point] | 
20 | CC1OC2(C)OC(=N)C1(C#N)C(C#N)(C#N)C2c1ccccc1 (stereo unspecified) | 35.3% | 8.2 µM [rising, partial curve] | 29.1 µM [rising, single point]
21 | COc1ccc(N2CCn3c2nc2c3c(=O)n(CCc3ccccc3)c(=O)n2C)cc1 |  | 1.46 µM [rising, full curve] | 0.58 µM [rising, full curve]

Row | Structure (SMILES) | cell number change | AC50 [1] | AC50 [2]
22 | CCOc1cc(CNc2ccc(N3CCOCC3)cc2)cc(Br)c1OCC | 18.9% | 0.184 µM [falling, full curve, poor fit] | 
23 | CCCn1c(SCC(=O)NCCc2ccc(OC)c(OC)c2)nc2c1c(=O)n(C)c(=O)n2C | -0.419% |  | 
24 | CCOC(=O)c1ccc(NC(=O)Nc2ccc(F)cc2)cc1 | -52.2% | 23.1 µM [falling, single point] | 18.4 µM [falling, single point]
25 | CCNC(=S)N/N=C/c1cccs1 | 65.1% |  | 18.4 µM [rising, single point]
26 | CC(=O)c1ccc(NC(=O)CCNS(=O)(=O)c2cccc3nonc23)cc1 |  | 2.06 µM [falling, partial curve] | 
27 | COc1cc([C@@H]2CC=C(C(=O)O)[C@H](c3ccc(F)cc3)N2S(=O)(=O)c2ccc(C)cc2)cc(OC)c1OC |  | 2.31 µM [rising, full curve] | 
28 | COc1ccc(/C=C2\SC(=S)N(CCC(=O)NCCCn3ccnc3)C2=O)cc1 | -24.1% |  | 
29 | Cc1cc(OC(=O)c2ccccc2Cl)ccc1N1C(=O)CCC1=O | 12% |  | 
30 | CCOc1ccccc1OCC(=O)O | -21.4% | 1.64 µM [rising, partial curve, poor fit] | 
31 | O=C(COc1ccc(Cl)cc1Cl)NN=C1c2ccccc2-c2ccccc21 | -5.55% | 0.651 µM [falling, single point] | 
32 | Cc1cc(Cl)c2oc(C(=O)N(C)CCCCN3CCOCC3)c(C)c2c1 |  | 29.1 µM [falling, single point] | 
33 | O=C(c1ccsc1)N1CCCC(N2CCN(c3cccc(C(F)(F)F)c3)CC2)C1 (stereo unspecified) | -9.63% | 0.58 µM [falling, single point] | 
34 | CCOc1cc(NC(=S)NCC2CCCO2)c(OCC)cc1NC(=O)c1ccc(OC)cc1 (stereo unspecified) | 8.45% | 0.103 µM [rising, full curve, poor fit] | 
35 | COc1ccc(OC)c(NC(=O)CN2C(=O)NC3(CCCc4ccccc43)C2=O)c1 (stereo unspecified) | -22.1% |  | 
36 | Cc1ccc(C(=O)N/N=c2\oc3ccccc3cc2C(N)=O)cc1 | 24.1% | 3.26 µM [falling, full curve, poor fit] | 
37 | O=C(Nc1ncc(Cl)cn1)c1cccs1 | 19.7% | 6.51 µM [falling, single point] | 
38 | C/C(=N\NC(=O)C1COc2ccccc2O1)c1cc2ccccc2o1 (stereo unspecified) | 32% |  | 1.84 µM [rising, partial curve, poor fit]
39 | Cc1ccc(CN2CCN(CC(=O)N3CCc4ccccc4C3)C2=O)cc1 | 34.3% |  | 32.6 µM [rising, single point]
40 | COc1ccccc1CNC(=O)COC(=O)c1c[nH]c2ccccc12 | -13.1% |  | 1.16 µM [falling, full curve, poor fit]
41 | COc1ccc(C(=O)Nc2ccc(Cl)cc2F)cc1S(=O)(=O)N1CCCC1 | -5.93% | 6.51 µM [rising, single point] | 
42 | COc1ccc(NC(=O)COC(=O)C2CC2)cc1S(=O)(=O)N1CCCCC1 | -8.28% | 7.31 µM [falling, single point] | 

Fetched by compound from the entries so far:
Row | Structure (SMILES) | cell number change | AC50 [1] | AC50 [2]
13 | CCOC(=O)C(NCc1ccco1)(NC(=O)c1ccccc1)C(F)(F)F (stereo unspecified) | -36.1% | 2.59 µM [falling, full curve] | 2.06 µM [falling, full curve]
42 | COc1ccc(NC(=O)COC(=O)C2CC2)cc1S(=O)(=O)N1CCCCC1 | -8.28% | 7.31 µM [falling, single point] | 
20 | CC1OC2(C)OC(=N)C1(C#N)C(C#N)(C#N)C2c1ccccc1 (stereo unspecified) | 35.3% | 8.2 µM [rising, partial curve] | 29.1 µM [rising, single point]

(cont.)

Row | Structure (SMILES) | cell number change | AC50 [1] | AC50 [2]
43 | Cc1cc(NC(=O)COC(=O)C2CCC(=O)N2)c([N+](=O)[O-])cc1C (stereo unspecified) |  | 0.231 µM [rising, full curve, poor fit] | 6.51 µM [falling, single point]
44 | CC(C)=C1C2CCC1C1C(=O)N(NC(=O)COc3ccc(C(C)(C)C)cc3)C(=O)C21 (stereo unspecified) | 0.643% | 29.1 µM [rising, single point] | 
45 | O=C1OC(Cc2ccccn2)C(=O)C1=C1SCCS1 (stereo unspecified) | -6.75% |  | 
46 | CCCCCCC(=O)Nc1ccc(Cl)cn1 | -3.82% | 6.51 µM [falling, single point] | 
47 | COc1ccc(CN2CCN(C(=O)CN3C(=O)C4C5C=CC(C5)C4C3=O)CC2)c(OC)c1OC (stereo unspecified) | -35.3% | 14.6 µM [falling, partial curve, poor fit] | 29.1 µM [falling, single point]
48 | O=C(CCC1CCCN(C(=O)c2ccc(F)c(F)c2)C1)N1CCN(c2ccccn2)CC1 (stereo unspecified) | 5.57% |  | 
49 | O=P(O)(O)CCP(=O)(c1ccccc1)c1ccccc1 | -5.2% | 13 µM [falling, partial curve] | 
50 | Cc1noc(/C=C/NCc2cccnc2)c1S(=O)(=O)N(C)CC(=O)N1CCc2ccccc21 | 12.5% | 1.46 µM [rising, partial curve, poor fit] | 
51 | CCc1nnc(NC(=O)CCCSc2nc3ccccc3[nH]2)s1 | 40.8% |  | 
52 | Cc1cccc(OC(C)C(=O)OCC(=O)Nc2sccc2C(N)=O)c1 (stereo unspecified) | 8.34% |  | 
53 | CNC(=O)c1csc(Cc2c(Cl)sc3ccc(Cl)cc23)n1 | 5.39% | 2.06 µM [rising, full curve, poor fit] | 
54 | COc1ccc(C2NC3=C(CCC3)C3(C#N)C(OC)(OC)N=C(N)C23C#N)cc1 (stereo unspecified) | -21% | 0.164 µM [falling, full curve] | 
55 | COC(=O)[C@H](Cc1ccccc1)NC(=O)C1(OC(C)=O)CC(OC(C)=O)C(OC(C)=O)C(OC(C)=O)C1 (stereo partly specified) | -30.6% | 5.8 µM [falling, full curve] | 5.8 µM [falling, full curve, poor fit]
56 | O=C(COC(=O)/C=C/c1cccc(Br)c1)NC1CC1 | 11.7% | 29.1 µM [rising, single point] | 
57 | c1ccc([C@H]2CC3C[C@@H](c4ccccc4)N2O3)cc1 | -0.856% | 0.731 µM [rising, single point] | 
58 | Cc1cc(=O)n2[nH]cc(-c3ccccc3)c2n1 | 10.1% | 29.1 µM [rising, single point] | 
59 | Cc1cccc(NC(=O)CCS(=O)(=O)c2cccc3nonc23)c1C | 6.31% |  | 
60 | CC(CCc1ccccc1)NS(=O)(=O)c1ccc(Cl)c(C(=O)O)c1 (stereo unspecified) | 26.5% |  | 
61 | COc1cc2c(cc1NC(=O)CCCCCN1C(=O)CCC1=O)oc1ccccc12 |  |  | 0.517 µM [rising, full curve]
62 | S=C(Nc1ccc(Br)cc1)N1CCn2cccc2C1c1cccnc1 (stereo unspecified) | -5.52% |  | 6.51 µM [rising, partial curve, poor fit]
